Some of the results follow. These are further read-outs of the screen, such as a control signal, another cell line or another target. No call is given for them. Most of these compounds were active or inconclusive in the main read-out, so they are no random draw. Potencies come from curve fits of mixed quality, noted in brackets.
Test: qHTS Assay to Find Inhibitors of Chronic Active B-Cell Receptor Signaling
Settings: ABC-DLBCL IkBa-CBG/CBR reporter, luminescence ratio (green luciferase fused to IkBa over red control in TMD8 lymphoma cells), 4 h
Procedure, shortened: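 Doxycycline induced both beetle luciferases in TMD8 lymphoma cells; IKK-driven degradation limits the IkappaBalpha-fused green signal, while red luminescence normalises for cell number and nonspecific effects. Compounds tested up to 46 uM, 4 hrs.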

[1] = measured here: CBR red luminescence, cell number
[2] = measured here: IkBa-CBG green luminescence

| SMILES | AC50 [1] | AC50 [2] |
| --- | --- | --- |
| Cc1ccc(-c2nnc3ccc(SCC(=O)Nc4cc(C)on4)nn23)cc1 | 1.41 µM [rising, partial curve] | – |
| O=C(O)CCc1ccc(-c2ccccc2)n1Cc1ccco1 | 0.184 µM [falling, full curve, poor fit] | – |
| CCOc1cc(C2NC(=O)NC(O)(C(F)(F)F)C2C(=O)c2ccccc2)ccc1OC (centres undefined) | 14.6 µM [rising, single point] | – |
| COc1ccc(OC)c(C2=NS(=O)(=O)N(C)C(C(=O)Nc3ccc(F)cc3F)=C2)c1 | 11.2 µM [falling, partial curve] | – |
| O=C(Nc1cccc(C(F)(F)F)c1)c1cccnc1N1CCN(c2ccccc2)CC1 | 3.66 µM [falling, full curve] | – |
| O=C(CCNC(=O)c1ccccc1Cl)Nc1nc(-c2ccccc2Cl)cs1 | 1.64 µM [falling, full curve, poor fit] | 2.91 µM [rising, full curve, poor fit] |
| COc1cc(NC(=O)CSc2ccc(-c3cccnc3)nn2)cc(OC)c1 | 14.1 µM [falling, single point] | – |
| Cc1cc(C)cc(OCC(=O)OCC(=O)NC2CCCCCCC2)c1 | 25.9 µM [rising, single point] | – |
| Cn1c(CN2CCCC2)nc2cc(NC(=O)c3cccs3)ccc21 | 16.4 µM [falling, single point] | – |
| O=C(NCc1ccco1)c1ccc(N2CCCCC2)c([N+](=O)[O-])c1 | 2.59 µM [rising, partial curve, poor fit] | – |
| CCOc1ccc(C(=O)/C=C/c2cn(CN3CCN(C)CC3)c3ccccc23)cc1 | 35.5 µM [falling, single point] | – |
| CN(C)CCNC(=S)Nc1ccc(-c2nc3ccccc3[nH]2)cc1 | 10 µM [falling, partial curve] | 5.01 µM [rising, partial curve, poor fit] |
| O=C(NCCCc1ccccc1)c1ccccc1 | 7.08 µM [rising, partial curve, poor fit] | – |
| COC(=O)c1sc(NC(=O)CSc2nncs2)c(C(=O)OC)c1C | 35.5 µM [falling, partial curve, poor fit] | – |
| COc1ccc2c(C)cc(Sc3nnnn3-c3ccccc3)nc2c1 | 29.1 µM [falling, single point] | – |
| COc1cccc(N2CCN(C(=O)c3ccc(CS(=O)c4ccccc4C)o3)CC2)c1 (centres undefined) | 35.5 µM [rising, single point] | 11.2 µM [falling, partial curve] |
| Cc1ccc(/C=N/NC(=O)COc2ccccc2-c2ccccc2)cc1 | 2.59 µM [rising, full curve] | 0.461 µM [falling, full curve] |
| CNC(=S)Nc1ccc([N+](=O)[O-])cc1 | 5.01 µM [rising, partial curve] | – |
| CCOc1ccc(N(CC)C(=O)Cc2c(C(=O)O)n(C)c3ccccc23)cc1 | 5.62 µM [falling, single point] | – |
| CCN(CC)S(=O)(=O)c1ccc(C(=O)NCCCN=C2NS(=O)(=O)c3ccccc32)cc1 | 29.1 µM [rising, single point] | – |
| Cc1cc(-c2cc(-c3ccccc3)on2)nc(NC2CCCC2)n1 | 20 µM [rising, single point] | – |

Another view of part of the listing above.
SMILES	AC50 [1]	AC50 [2]
O=C(O)CCc1ccc(-c2ccccc2)n1Cc1ccco1	0.184 µM [falling, full curve, poor fit]	–
CCOc1cc(C2NC(=O)NC(O)(C(F)(F)F)C2C(=O)c2ccccc2)ccc1OC (centres undefined)	14.6 µM [rising, single point]	–
COc1ccc(OC)c(C2=NS(=O)(=O)N(C)C(C(=O)Nc3ccc(F)cc3F)=C2)c1	11.2 µM [falling, partial curve]	–
O=C(Nc1cccc(C(F)(F)F)c1)c1cccnc1N1CCN(c2ccccc2)CC1	3.66 µM [falling, full curve]	–

The listing continues:

| SMILES | AC50 [1] | AC50 [2] |
| --- | --- | --- |
| COC(=O)CN1C(c2ccccc2)=Nc2ccc(Cl)cc2C1c1ccccc1 (centres undefined) | 15.8 µM [falling, partial curve] | 17.8 µM [rising, partial curve, poor fit] |
| Cc1cc(C)c(N=Cc2c(O)c3ccccc3oc2=O)c(C)c1 | 2.82 µM [falling, full curve] | – |
| CC(O)Cc1nsc(NC(=O)c2cccs2)n1 (centres undefined) | 14.6 µM [falling, partial curve, poor fit] | – |
| Cc1cc(C)nc(N2CCC(C(=O)NCCc3ccc(Cl)cc3)CC2)n1 | 3.55 µM [rising, full curve, poor fit] | – |
| Nc1c(C(=O)c2ccccc2)oc2ccc([N+](=O)[O-])cc12 | 12.6 µM [falling, partial curve] | – |
| CCC(C)n1c(SCc2ccccc2)nc2ccsc2c1=O (centres undefined) | 11.6 µM [rising, partial curve] | – |
| O=C(O)c1ccc(N/N=C/c2cccc(F)c2)cc1 | 0.0291 µM [falling, full curve] | – |
| CN(c1ccccc1)S(=O)(=O)c1cccc(C(=O)NCCCN2CCCC2=O)c1 | 3.66 µM [rising, single point] | – |
| CCOC(=O)c1nnn(-c2nonc2-n2cccc2)c1CN1CCC(C(=O)OCC)CC1 | 35.5 µM [falling, single point] | – |
| CC(=O)Nc1ccc(S(=O)(=O)NCCc2ccc(S(N)(=O)=O)cc2)cc1 | 0.092 µM [falling, full curve, poor fit] | – |
| C=C1C(=O)O[C@H]2[C@H]1[C@@H](O)CC(=C)[C@@H]1CC(=O)[C@@H](C)[C@H]21 | 10 µM [falling, partial curve, poor fit] | – |
| COc1ccc(Cc2n[nH]c(=S)n2NC(=O)Nc2ccc(Cl)c(Cl)c2)cc1 | 35.5 µM [falling, single point] | – |
| O=C(O)c1ccc(N/N=C/c2cn(-c3ccccc3)nc2-c2cccs2)cc1 | 15.8 µM [falling, partial curve, poor fit] | – |
| Cc1cccn2c(=O)c3cc(C(=O)NCC4CCCO4)c(=N)n(Cc4cccnc4)c3nc12 (centres undefined) | 0.164 µM [falling, full curve, poor fit] | – |
| COc1ccc(C)cc1NC(=O)CCCN1C(=O)CCC1=O | 25.9 µM [rising, single point] | – |
| CCc1nc2ccc(C(=O)O)cc2nc1CC | 2.31 µM [falling, full curve] | – |
| COc1ccc(NC(=O)c2nc(S(=O)(=O)Cc3cccc(C)c3)ncc2Cl)c(OC)c1 | 3.98 µM [falling, full curve] | – |
| COCC(C)N1CC(O)=C(c2nc(-c3ccc(Cl)cc3)cs2)C1=N (centres undefined) | 3.16 µM [rising, full curve, poor fit] | – |
| N=C1S/C(=C\c2ccco2)C(=O)N1c1ccc2c(c1)OCO2 | 35.5 µM [falling, single point] | – |
| C[C@H](N)C(=O)NC[C@H]1O[C@@H](n2cnc3c(N)ncnc32)[C@H](O)[C@@H]1O | 1.16 µM [rising, full curve, poor fit] | – |
| O=C(Nc1nnc(SCc2ccccc2F)s1)C1=COCCO1 | 0.794 µM [rising, full curve, poor fit] | – |

| SMILES | AC50 [1] | AC50 [2] |
| --- | --- | --- |
| CCn1cc(C(=O)N2CCCC2)c(=O)c2cc(S(=O)(=O)N3CC(C)CC(C)C3)ccc21 (centres undefined) | 28.2 µM [rising, single point] | – |
| CCc1ccc(/C=C/C(=O)c2c(C)cc(C)[nH]c2=O)cc1 | 16.4 µM [falling, single point] | – |
| O=C(Nc1ccc2c(c1)OCCO2)c1cc2ccccc2o1 | 8.91 µM [falling, partial curve, poor fit] | – |
| CCNC(=S)N/N=C/c1cccc(C)c1 | – | 20.6 µM [falling, single point] |
| COc1ccc(NC(=S)Nc2cc(C)cc(C)n2)cc1OC | 2.91 µM [rising, full curve, poor fit] | – |
| Fc1cccc(NC(=S)NCc2ccccc2Cl)c1 | 0.891 µM [rising, partial curve] | – |
| COc1ccc(-c2nc(C#N)c(NCc3cccnc3)o2)cc1OC | – | 14.1 µM [falling, partial curve, poor fit] |
| COC(=O)c1ccc(CNC(=O)c2ccc(OC)c(S(=O)(=O)NC3CCCC3)c2)cc1 | 32.6 µM [falling, single point] | – |
| COc1ccccc1CCC(=O)N(C)CC(=O)Nc1ccc(Cl)c(C(F)(F)F)c1 | 31.6 µM [falling, single point] | – |
| CSc1ccccc1NC(=O)c1cc(CC(C)C)on1 | 0.731 µM [falling, partial curve, poor fit] | – |
| N#Cc1cccc(S(=O)(=O)Nc2c(NC3CCCCC3)c3ccccc3oc2=O)c1 | 14.1 µM [falling, partial curve] | – |
| CCc1ccc(C(C(=O)NC2CCCCC2)N(C(=O)c2ccccn2)c2cccnc2)cc1 (centres undefined) | 35.5 µM [rising, single point] | – |
| O=C(Nc1nnc(-c2cccnc2)o1)c1cccc([N+](=O)[O-])c1 | 6.31 µM [falling, full curve, poor fit] | – |
| COc1cc(C(=O)Nc2ccc3ccccc3c2)cc(OC)c1OC | 35.5 µM [rising, single point] | 25.1 µM [falling, single point] |
| NC(=O)NC(=O)COC(=O)c1cccnc1Nc1ccccc1F | 5.62 µM [rising, single point] | – |
| COc1ccc2cc3c(N)nn(C(=O)c4ccccc4Cl)c3nc2c1 | 0.355 µM [falling, full curve, poor fit] | – |
| CCCc1ccc(C(=O)NNC(=O)c2ccc(Br)cc2)cc1 | 5.17 µM [rising, full curve] | – |
| O=C(CC1Nc2ccccc2NC1=O)NC1CCCCC1 (centres undefined) | 35.5 µM [falling, single point] | – |
| COC(=O)c1ccc(NC(=O)c2ccc3c(c2)OCO3)cc1 | 0.146 µM [falling, full curve, poor fit] | – |
| CC(NC(=O)c1ccccc1Cl)C(=O)O (centres undefined) | 2.59 µM [falling, partial curve, poor fit] | – |
| N#Cc1ccsc1NC(=O)COc1ccc(-c2nnco2)cc1 | 14.1 µM [falling, single point] | – |
